# PubChem BioAssay AID1259405, NCATS – 2018
# Assay: 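Knock-downs that lift recombinant protein yield in hamster ovary cells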 (primary screen)
# Cells: Chinese hamster CHO-K1 ovary cells with stable secreted eGFP expression
# Knock-down reagent: single siRNA against mouse genes, 0.8 pmol siRNA per well (2 µl of 400 nM stock)
# Time to read-out: 3 days
# Measurement: 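Percent of the per-plate non-targeting control median for intracellular GFP per well by laser scanning cytometry and for cell viability by ATP luminescence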
# Reading the numbers: GFP, % of control: higher = more GFP per well, higher productivity; viability (ATP), % of control: higher = more viable cells (more ATP)
# Active means: 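a knock-down is called active if GFP reaches 120% or more of non-targeting control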
# This is an unselected part of about 50,000 reagents. About 4,000 of all reagents (8%) count as active. 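Mouse siRNA library applied to hamster cells; one well for each siRNA.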 Unmarked entries are inactive. Reagents against one gene are numbered here.
Target gene,reagent no.,"GFP, % of control","viability (ATP), % of control"
Tnfrsf14 (GeneID 230979),1,57,79.1
Tnfrsf14 (GeneID 230979),2,25.4,25.7
Tnfrsf14 (GeneID 230979),3,31.7,47.5
Tbc1d1 (GeneID 57915),1,109,75.8
Tbc1d1 (GeneID 57915),2,68.4,69
Tbc1d1 (GeneID 57915),3,57.8,70.6
Irx3os (GeneID 319388),1,61,88.2
Irx3os (GeneID 319388),2,71.1,84.5
Irx3os (GeneID 319388),3,68.6,74.4
Zbtb33 (GeneID 56805),1,76.9,91.2
Zbtb33 (GeneID 56805),2,90.5,93.5
Zbtb33 (GeneID 56805),3,79.4,109
Fanci (GeneID 208836),1,68.5,75.8
Fanci (GeneID 208836),2,65.1,69
Fanci (GeneID 208836),3,133 (active),152
Eno2 (GeneID 13807),1,117,137
Eno2 (GeneID 13807),2,73.2,85.8
Eno2 (GeneID 13807),3,46.1,50
Diras2 (GeneID 68203),1,125 (active),97.8
Diras2 (GeneID 68203),2,100,135
Diras2 (GeneID 68203),3,71.6,81.3
Ankrd42 (GeneID 73845),1,177 (active),93.4
Ankrd42 (GeneID 73845),2,66.1,82.1
Ankrd42 (GeneID 73845),3,131 (active),140
Ifitm7 (GeneID 74482),1,69.3,62.3
Ifitm7 (GeneID 74482),2,24.7,36.4
Ifitm7 (GeneID 74482),3,173 (active),54.7
Sema4b (GeneID 20352),1,54.6,58.5
Sema4b (GeneID 20352),2,136 (active),109
Sema4b (GeneID 20352),3,99.2,112
Rps6kb1 (GeneID 72508),1,142 (active),77.2
Rps6kb1 (GeneID 72508),2,91.3,85.7
Rps6kb1 (GeneID 72508),3,90.1,95.4
Or2w2 (GeneID 258533),1,68.9,70.2
Or2w2 (GeneID 258533),2,78,81.2
Or2w2 (GeneID 258533),3,71,70.8
Or14c40 (GeneID 257906),1,150 (active),96.5
Or14c40 (GeneID 257906),2,92.4,55.3
Or14c40 (GeneID 257906),3,69.1,79.7
Fsip1 (GeneID 71313),1,84.8,86.8
Fsip1 (GeneID 71313),2,111,76.3
Fsip1 (GeneID 71313),3,107,56.2
Akr1d1 (GeneID 208665),1,118,76.2
Akr1d1 (GeneID 208665),2,112,84.4
Akr1d1 (GeneID 208665),3,69,80.5
Man2c1 (GeneID 73744),1,103,108
Man2c1 (GeneID 73744),2,109,112
Man2c1 (GeneID 73744),3,27,50.2
Smdt1 (GeneID 69029),1,70.2,65.4
Smdt1 (GeneID 69029),2,72.6,63.7
Smdt1 (GeneID 69029),3,47.6,80.3
Rgr (GeneID 57811),1,61.3,48.3
Rgr (GeneID 57811),2,56.6,95.2
Rgr (GeneID 57811),3,48.2,60.4
Or10ab5 (GeneID 258369),1,97.1,91.1
Or10ab5 (GeneID 258369),2,77.1,91.8
Or10ab5 (GeneID 258369),3,77.9,68.1
